From PMC10564934
These are yes or no findings as the source states them, for the method shown. In cells and extracts the contact can be indirect. Some binding calls cover weakened binding; strength is not graded here. For some assays here: Tags and fused reporters may be left off the sequences shown.

Amino acid sequences for entries named in this document (tags omitted).
UniProt Q86TM6: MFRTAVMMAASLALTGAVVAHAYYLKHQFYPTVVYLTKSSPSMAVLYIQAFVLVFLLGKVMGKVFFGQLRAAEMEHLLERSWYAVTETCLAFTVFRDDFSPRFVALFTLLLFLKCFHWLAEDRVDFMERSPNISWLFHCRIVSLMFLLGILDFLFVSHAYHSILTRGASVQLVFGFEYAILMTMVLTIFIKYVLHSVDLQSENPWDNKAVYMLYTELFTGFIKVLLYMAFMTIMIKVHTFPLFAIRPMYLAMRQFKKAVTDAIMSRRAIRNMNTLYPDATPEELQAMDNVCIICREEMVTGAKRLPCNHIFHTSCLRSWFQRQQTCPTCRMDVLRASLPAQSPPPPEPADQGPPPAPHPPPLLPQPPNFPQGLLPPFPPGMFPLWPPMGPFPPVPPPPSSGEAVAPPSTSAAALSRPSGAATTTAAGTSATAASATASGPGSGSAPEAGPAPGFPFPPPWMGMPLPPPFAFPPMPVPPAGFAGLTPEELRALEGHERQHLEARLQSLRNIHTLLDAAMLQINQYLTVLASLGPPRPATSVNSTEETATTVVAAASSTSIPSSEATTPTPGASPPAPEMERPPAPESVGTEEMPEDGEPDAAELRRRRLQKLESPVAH

What was measured:
[1] = biological target: T1, MCT4 (monocarboxylate transporter 4), endogenous (human (endogenous in A549 and H1752)) (UniProt O15427); assay: co-IP; immunoprecipitation of endogenous proteins in A549 cells
T1 sequence: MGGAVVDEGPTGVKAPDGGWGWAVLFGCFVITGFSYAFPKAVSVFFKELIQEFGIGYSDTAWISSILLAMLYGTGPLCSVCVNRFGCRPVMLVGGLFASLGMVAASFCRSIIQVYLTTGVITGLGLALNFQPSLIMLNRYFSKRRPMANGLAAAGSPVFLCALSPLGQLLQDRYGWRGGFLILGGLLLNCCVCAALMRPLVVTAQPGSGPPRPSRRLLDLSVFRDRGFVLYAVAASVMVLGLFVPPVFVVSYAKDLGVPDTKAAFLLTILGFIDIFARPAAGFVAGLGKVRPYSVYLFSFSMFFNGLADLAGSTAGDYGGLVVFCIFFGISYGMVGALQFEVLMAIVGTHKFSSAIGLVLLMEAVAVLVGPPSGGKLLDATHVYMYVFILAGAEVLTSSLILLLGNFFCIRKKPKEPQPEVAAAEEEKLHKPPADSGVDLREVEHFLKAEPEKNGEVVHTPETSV

[2] = biological target: T1, MCT4 (monocarboxylate transporter 4), endogenous (human (endogenous in A549 and H1752)); assay: proximity ligation; Duolink in situ PLA in fixed A549/H1752 cells with anti-MCT4 and anti-SYVN1 antibodies
[3] = biological target: T2, Flag-tagged MCT4 (monocarboxylate transporter 4), full length (UniProt O15427); assay: co-IP; HEK293T cotransfected with Flag-MCT4 (or its deletion mutants) and HA-SYVN1, 48 h; nondenaturing IP in native lysis buffer with anti-Flag or anti-HA antibody, immunoblot
T2 sequence: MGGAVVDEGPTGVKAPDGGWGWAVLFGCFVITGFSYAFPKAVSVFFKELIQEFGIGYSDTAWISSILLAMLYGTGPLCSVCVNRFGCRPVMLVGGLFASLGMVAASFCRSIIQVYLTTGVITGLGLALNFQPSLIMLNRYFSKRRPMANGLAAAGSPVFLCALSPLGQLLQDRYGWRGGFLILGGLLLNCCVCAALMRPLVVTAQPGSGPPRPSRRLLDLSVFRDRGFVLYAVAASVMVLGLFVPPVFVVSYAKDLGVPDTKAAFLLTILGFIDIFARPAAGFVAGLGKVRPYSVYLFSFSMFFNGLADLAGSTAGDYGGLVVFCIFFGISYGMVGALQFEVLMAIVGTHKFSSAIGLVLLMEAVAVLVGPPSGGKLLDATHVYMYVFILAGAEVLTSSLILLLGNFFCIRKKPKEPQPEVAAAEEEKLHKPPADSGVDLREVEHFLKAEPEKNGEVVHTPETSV

[4] = biological target: T2, Flag-tagged MCT4 (monocarboxylate transporter 4), full length; assay: proximity ligation; PLA in HEK293T cells cotransfected with HA-SYVN1 and Flag-MCT4 or its deletion mutants; signals quantified with ImageJ
[5] = biological target: HA-tagged SYVN1 (Synoviolin 1) (UniProt Q86TM6); assay: co-IP; HEK293T cotransfected with Flag-MCT4 (or its deletion mutants) and HA-SYVN1, 48 h; nondenaturing IP in native lysis buffer with anti-Flag or anti-HA antibody, immunoblot

Molecule: SYVN1 (Synoviolin 1), endogenous (from UniProt Q86TM6 1-617) (enzyme)
- binding [1]: binds
- binding [2]: binds

Molecule: HA-tagged SYVN1 (Synoviolin 1) (from UniProt Q86TM6 1-617) (enzyme)
- binding [3]: binds
- binding [4]: binds

B1: Flag-tagged MCT4 (monocarboxylate transporter 4), full length (protein, UniProt O15427 1-465)
chain: MGGAVVDEGPTGVKAPDGGWGWAVLFGCFVITGFSYAFPKAVSVFFKELIQEFGIGYSDTAWISSILLAMLYGTGPLCSVCVNRFGCRPVMLVGGLFASLGMVAASFCRSIIQVYLTTGVITGLGLALNFQPSLIMLNRYFSKRRPMANGLAAAGSPVFLCALSPLGQLLQDRYGWRGGFLILGGLLLNCCVCAALMRPLVVTAQPGSGPPRPSRRLLDLSVFRDRGFVLYAVAASVMVLGLFVPPVFVVSYAKDLGVPDTKAAFLLTILGFIDIFARPAAGFVAGLGKVRPYSVYLFSFSMFFNGLADLAGSTAGDYGGLVVFCIFFGISYGMVGALQFEVLMAIVGTHKFSSAIGLVLLMEAVAVLVGPPSGGKLLDATHVYMYVFILAGAEVLTSSLILLLGNFFCIRKKPKEPQPEVAAAEEEKLHKPPADSGVDLREVEHFLKAEPEKNGEVVHTPETSV
- binding [5]: binds
